Experimental data published in publication PMC8805157 (2021).
No constants are given. Whether binding was seen depends on the method and setting. Some results given as binding are weak or reduced against the parent protein; the word gives no strength. Tags and fused reporters may be left off the sequences shown.

T1: BD-Atg9 (S. cerevisiae) (UniProt Q12142)
T1 sequence: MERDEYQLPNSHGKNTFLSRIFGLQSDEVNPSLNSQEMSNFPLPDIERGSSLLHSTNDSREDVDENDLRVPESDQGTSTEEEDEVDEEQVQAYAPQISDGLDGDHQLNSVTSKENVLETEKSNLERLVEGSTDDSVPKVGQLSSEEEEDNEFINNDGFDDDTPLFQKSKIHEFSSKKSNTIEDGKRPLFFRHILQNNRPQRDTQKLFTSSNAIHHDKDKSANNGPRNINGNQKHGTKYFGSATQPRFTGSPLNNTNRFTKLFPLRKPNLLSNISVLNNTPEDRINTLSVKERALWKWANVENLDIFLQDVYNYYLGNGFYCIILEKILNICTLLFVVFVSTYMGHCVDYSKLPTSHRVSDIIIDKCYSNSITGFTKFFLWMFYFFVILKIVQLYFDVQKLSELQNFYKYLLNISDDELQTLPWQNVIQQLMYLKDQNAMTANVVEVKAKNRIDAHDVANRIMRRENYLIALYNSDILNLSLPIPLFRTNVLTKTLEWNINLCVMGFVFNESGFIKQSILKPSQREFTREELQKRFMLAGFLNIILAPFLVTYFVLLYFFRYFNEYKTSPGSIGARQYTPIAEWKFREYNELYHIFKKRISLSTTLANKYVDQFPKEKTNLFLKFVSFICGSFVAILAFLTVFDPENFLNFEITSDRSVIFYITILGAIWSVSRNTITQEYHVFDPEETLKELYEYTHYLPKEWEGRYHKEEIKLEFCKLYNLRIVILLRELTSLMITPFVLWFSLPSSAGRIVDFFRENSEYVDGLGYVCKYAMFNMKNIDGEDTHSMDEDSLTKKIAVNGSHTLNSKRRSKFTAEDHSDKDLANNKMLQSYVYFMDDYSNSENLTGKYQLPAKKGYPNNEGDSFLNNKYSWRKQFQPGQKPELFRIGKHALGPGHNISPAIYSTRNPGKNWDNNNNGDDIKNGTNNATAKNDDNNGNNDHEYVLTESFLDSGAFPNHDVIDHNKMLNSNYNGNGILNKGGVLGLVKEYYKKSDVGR

B1: AD-Atg11 a/d-2 (I548E/Y551E) (protein, UniProt Q12527 1-1178)
chain: MADADEYSTAPTQQEITPLQTTATIINAISGECITTNVDFFVSLDKFKQFIARKWKIPPDQLLILLPYGNKLKPSMFKELLINRSFTLNDFYVYDRRLFSLVSKPTPTNLLTSKDSNPMNSPNSNDLTETLEYLIKNSHISQYQGSDTIMIKPMPSPLEDADVDLSRLNYHSVTSLLTTNLGWLSALEIDVHYFKSLIPDIIAHIKRIFDGLTVCSQYLKLYCFDVESLYNSNVQFLNQLVDNGMTSKWEKCFNDTLSKLTALEGDSLQKFINIESLLENEKSVKILNHSINGKLNKIKREIDENASFRDIITVNIDRLRQMFTPNESKFELEDQMAESFEVLVSEMRTRSRNVLDKEEEEFNSQEFLKSMNVMLEKDKKESVKTLFTISQALYSQIGELIDLKKSLQKHAVAILGNIAFTQMEILGIKRLLLNECNKDLELYKKYEVEFAQVEDLPLIYGLYLIEKYRRLSWFQQILSFISNFNQDLELFKQNELRTRNKWVKNFGSIATVFCEDLLSSSDFKRLNEYHSHTSPPNEDEEDENENSEANERQDLVKVSQAIDNYMTQIKETDVSEPIIDLLSKTLFETKRFHIIYSNFKNNNNNSSNGNSISPEGSIALKSDDVVKGYKTRIKKLESLLHEFQYSDIGHWPQGVLNTHLKPFRGSATSINKKKFLGASVLLEPANISEVNIDSVSQANNHQIQELESNVDDLLHQLQLLKEENNRKSMQISEMGKKISDLEVEKTAYRETLTNLNQELARLTNEEQSHRTEIFTLNASFKKQLNDIISQDNEKIEKLTGDYDDVSKSRERLQMDLDESNKKHEQEVNLLKADIERLGKQIVTSEKSYAETNSSSMEKGEKFETIPLAEDPGRENQISAYTQTLQDRIFDIISTNIFILENIGLLLTFDNNNNIQIRRVKGLKKGTAQSNILDESTQMLDAHDNSLIKSPVFQKLKDEYELIKSVANGSEKDTQQSIFLGNITQLYDNKLYEVAVIRRFKDIETLAKKLTKENKIKRTLLERFQREKVTLRNFQIGDLALFLPTRENVNSVGSMSSSTSSLSSSFSSVDLSTPPPLDAMSIQSSPSVIHSNVINQASISGRDKNKLMRPWAAFTAFEESTRYFLKDEKGLTKGKEWFVGRIVTLEHFVADSPSNNPFRLPKGSVWFQVTAVVVSYQGV
B2: AD-Atg11 a/d-3 (L555E/V558E) (protein, UniProt Q12527 1-1178)
chain: MADADEYSTAPTQQEITPLQTTATIINAISGECITTNVDFFVSLDKFKQFIARKWKIPPDQLLILLPYGNKLKPSMFKELLINRSFTLNDFYVYDRRLFSLVSKPTPTNLLTSKDSNPMNSPNSNDLTETLEYLIKNSHISQYQGSDTIMIKPMPSPLEDADVDLSRLNYHSVTSLLTTNLGWLSALEIDVHYFKSLIPDIIAHIKRIFDGLTVCSQYLKLYCFDVESLYNSNVQFLNQLVDNGMTSKWEKCFNDTLSKLTALEGDSLQKFINIESLLENEKSVKILNHSINGKLNKIKREIDENASFRDIITVNIDRLRQMFTPNESKFELEDQMAESFEVLVSEMRTRSRNVLDKEEEEFNSQEFLKSMNVMLEKDKKESVKTLFTISQALYSQIGELIDLKKSLQKHAVAILGNIAFTQMEILGIKRLLLNECNKDLELYKKYEVEFAQVEDLPLIYGLYLIEKYRRLSWFQQILSFISNFNQDLELFKQNELRTRNKWVKNFGSIATVFCEDLLSSSDFKRLNEYHSHTSPPNEDEEDENENSIANYRQDEVKESQAIDNYMTQIKETDVSEPIIDLLSKTLFETKRFHIIYSNFKNNNNNSSNGNSISPEGSIALKSDDVVKGYKTRIKKLESLLHEFQYSDIGHWPQGVLNTHLKPFRGSATSINKKKFLGASVLLEPANISEVNIDSVSQANNHQIQELESNVDDLLHQLQLLKEENNRKSMQISEMGKKISDLEVEKTAYRETLTNLNQELARLTNEEQSHRTEIFTLNASFKKQLNDIISQDNEKIEKLTGDYDDVSKSRERLQMDLDESNKKHEQEVNLLKADIERLGKQIVTSEKSYAETNSSSMEKGEKFETIPLAEDPGRENQISAYTQTLQDRIFDIISTNIFILENIGLLLTFDNNNNIQIRRVKGLKKGTAQSNILDESTQMLDAHDNSLIKSPVFQKLKDEYELIKSVANGSEKDTQQSIFLGNITQLYDNKLYEVAVIRRFKDIETLAKKLTKENKIKRTLLERFQREKVTLRNFQIGDLALFLPTRENVNSVGSMSSSTSSLSSSFSSVDLSTPPPLDAMSIQSSPSVIHSNVINQASISGRDKNKLMRPWAAFTAFEESTRYFLKDEKGLTKGKEWFVGRIVTLEHFVADSPSNNPFRLPKGSVWFQVTAVVVSYQGV
B3: AD-Atg11 I562A (protein, UniProt Q12527 1-1178)
chain: MADADEYSTAPTQQEITPLQTTATIINAISGECITTNVDFFVSLDKFKQFIARKWKIPPDQLLILLPYGNKLKPSMFKELLINRSFTLNDFYVYDRRLFSLVSKPTPTNLLTSKDSNPMNSPNSNDLTETLEYLIKNSHISQYQGSDTIMIKPMPSPLEDADVDLSRLNYHSVTSLLTTNLGWLSALEIDVHYFKSLIPDIIAHIKRIFDGLTVCSQYLKLYCFDVESLYNSNVQFLNQLVDNGMTSKWEKCFNDTLSKLTALEGDSLQKFINIESLLENEKSVKILNHSINGKLNKIKREIDENASFRDIITVNIDRLRQMFTPNESKFELEDQMAESFEVLVSEMRTRSRNVLDKEEEEFNSQEFLKSMNVMLEKDKKESVKTLFTISQALYSQIGELIDLKKSLQKHAVAILGNIAFTQMEILGIKRLLLNECNKDLELYKKYEVEFAQVEDLPLIYGLYLIEKYRRLSWFQQILSFISNFNQDLELFKQNELRTRNKWVKNFGSIATVFCEDLLSSSDFKRLNEYHSHTSPPNEDEEDENENSIANYRQDLVKVSQAADNYMTQIKETDVSEPIIDLLSKTLFETKRFHIIYSNFKNNNNNSSNGNSISPEGSIALKSDDVVKGYKTRIKKLESLLHEFQYSDIGHWPQGVLNTHLKPFRGSATSINKKKFLGASVLLEPANISEVNIDSVSQANNHQIQELESNVDDLLHQLQLLKEENNRKSMQISEMGKKISDLEVEKTAYRETLTNLNQELARLTNEEQSHRTEIFTLNASFKKQLNDIISQDNEKIEKLTGDYDDVSKSRERLQMDLDESNKKHEQEVNLLKADIERLGKQIVTSEKSYAETNSSSMEKGEKFETIPLAEDPGRENQISAYTQTLQDRIFDIISTNIFILENIGLLLTFDNNNNIQIRRVKGLKKGTAQSNILDESTQMLDAHDNSLIKSPVFQKLKDEYELIKSVANGSEKDTQQSIFLGNITQLYDNKLYEVAVIRRFKDIETLAKKLTKENKIKRTLLERFQREKVTLRNFQIGDLALFLPTRENVNSVGSMSSSTSSLSSSFSSVDLSTPPPLDAMSIQSSPSVIHSNVINQASISGRDKNKLMRPWAAFTAFEESTRYFLKDEKGLTKGKEWFVGRIVTLEHFVADSPSNNPFRLPKGSVWFQVTAVVVSYQGV
B4: AD-Atg11 I562Q (protein, UniProt Q12527 1-1178)
chain: MADADEYSTAPTQQEITPLQTTATIINAISGECITTNVDFFVSLDKFKQFIARKWKIPPDQLLILLPYGNKLKPSMFKELLINRSFTLNDFYVYDRRLFSLVSKPTPTNLLTSKDSNPMNSPNSNDLTETLEYLIKNSHISQYQGSDTIMIKPMPSPLEDADVDLSRLNYHSVTSLLTTNLGWLSALEIDVHYFKSLIPDIIAHIKRIFDGLTVCSQYLKLYCFDVESLYNSNVQFLNQLVDNGMTSKWEKCFNDTLSKLTALEGDSLQKFINIESLLENEKSVKILNHSINGKLNKIKREIDENASFRDIITVNIDRLRQMFTPNESKFELEDQMAESFEVLVSEMRTRSRNVLDKEEEEFNSQEFLKSMNVMLEKDKKESVKTLFTISQALYSQIGELIDLKKSLQKHAVAILGNIAFTQMEILGIKRLLLNECNKDLELYKKYEVEFAQVEDLPLIYGLYLIEKYRRLSWFQQILSFISNFNQDLELFKQNELRTRNKWVKNFGSIATVFCEDLLSSSDFKRLNEYHSHTSPPNEDEEDENENSIANYRQDLVKVSQAQDNYMTQIKETDVSEPIIDLLSKTLFETKRFHIIYSNFKNNNNNSSNGNSISPEGSIALKSDDVVKGYKTRIKKLESLLHEFQYSDIGHWPQGVLNTHLKPFRGSATSINKKKFLGASVLLEPANISEVNIDSVSQANNHQIQELESNVDDLLHQLQLLKEENNRKSMQISEMGKKISDLEVEKTAYRETLTNLNQELARLTNEEQSHRTEIFTLNASFKKQLNDIISQDNEKIEKLTGDYDDVSKSRERLQMDLDESNKKHEQEVNLLKADIERLGKQIVTSEKSYAETNSSSMEKGEKFETIPLAEDPGRENQISAYTQTLQDRIFDIISTNIFILENIGLLLTFDNNNNIQIRRVKGLKKGTAQSNILDESTQMLDAHDNSLIKSPVFQKLKDEYELIKSVANGSEKDTQQSIFLGNITQLYDNKLYEVAVIRRFKDIETLAKKLTKENKIKRTLLERFQREKVTLRNFQIGDLALFLPTRENVNSVGSMSSSTSSLSSSFSSVDLSTPPPLDAMSIQSSPSVIHSNVINQASISGRDKNKLMRPWAAFTAFEESTRYFLKDEKGLTKGKEWFVGRIVTLEHFVADSPSNNPFRLPKGSVWFQVTAVVVSYQGV

molecular target: T1, BD-Atg9 (S. cerevisiae); assay: two-hybrid; BD-Atg9 (bait) with AD-Atg11 and mutants (prey) in the MKO strain; growth on SMD -ura, -leu, -his + 1 mM 3AT plates

binding, binds:
B1
B2
B3
B4
